According to patent publication US20250092108A1:
Results are given in words; binding and its absence hold for the method and conditions named. Some results given as binding are weak or reduced against the parent protein; the word gives no strength.

The chains behind the UniProt entries cited, without tags or fusion partners. Residues count along the entry.
UniProt P01589, residues 22-213: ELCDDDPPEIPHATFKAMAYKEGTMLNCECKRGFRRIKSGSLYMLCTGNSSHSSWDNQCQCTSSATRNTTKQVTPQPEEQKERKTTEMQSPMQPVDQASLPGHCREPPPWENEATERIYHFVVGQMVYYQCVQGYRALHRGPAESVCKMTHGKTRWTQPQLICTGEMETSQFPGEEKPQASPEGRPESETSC

Biological target: human CD25 (IL-2Rα) (human) (UniProt P01589)
Test: Biacore SPR, human CD25 captured on the chip, IL-2 variant as analyte, pH 7.4 and pH 6.0

binding: binds
B1: XENP14381 (prior art IL-2 variant, mutant 2-4 with Q126T, with R38L) (ligand)
chain: APTSSSTKKTQLQLEHLLLDLQMILNGISNHKNPRLALMLTFKFYMPEKATELKHLQCLEEELKPLEEALRLAPSKNFHLRPRDLISDVNVIVLELKGSETTFMCEYADETATIVEFLNRWITFSTSIISTLTHHHHHHHH
